According to PubChem BioAssay AID1671190 (National Center for Advancing Translational Sciences (NCATS), 2021):
The campaign covered roughly 580,000 compounds. About 6,100 (1.1%) were called active. The shares of active, inactive and inconclusive entries below differ from those in the screen. The call rests on the fitted dose curve; in most records, active means well fitted inhibition curve with a large enough effect; inconclusive means small, poorly fitted or top-dose-only effect, or another doubt; inactive means no such curve, though single readings can be large or run the other way. Where the call is inconclusive, the potency comes from a doubtful curve fit.

The chains behind the UniProt entries cited, without tags or fusion partners.
UniProt P18054, whole entry, looked up: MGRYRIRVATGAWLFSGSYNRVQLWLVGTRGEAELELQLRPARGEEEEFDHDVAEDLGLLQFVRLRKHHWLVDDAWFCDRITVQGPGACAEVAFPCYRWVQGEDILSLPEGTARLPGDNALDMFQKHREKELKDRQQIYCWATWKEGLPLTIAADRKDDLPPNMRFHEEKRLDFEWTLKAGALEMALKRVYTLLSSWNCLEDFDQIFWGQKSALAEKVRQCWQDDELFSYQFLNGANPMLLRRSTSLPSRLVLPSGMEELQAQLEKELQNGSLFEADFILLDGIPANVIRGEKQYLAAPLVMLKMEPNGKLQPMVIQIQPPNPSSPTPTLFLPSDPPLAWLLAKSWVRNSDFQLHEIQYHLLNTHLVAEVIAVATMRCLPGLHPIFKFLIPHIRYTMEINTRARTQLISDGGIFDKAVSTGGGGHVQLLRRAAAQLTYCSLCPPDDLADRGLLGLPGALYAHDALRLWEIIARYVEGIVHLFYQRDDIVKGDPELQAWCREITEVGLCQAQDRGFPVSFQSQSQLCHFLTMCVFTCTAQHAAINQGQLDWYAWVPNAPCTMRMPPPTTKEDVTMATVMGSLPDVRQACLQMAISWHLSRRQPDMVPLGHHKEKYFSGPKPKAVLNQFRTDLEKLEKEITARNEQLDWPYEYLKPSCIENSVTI

Each compound was assayed against Polyunsaturated fatty acid lipoxygenase ALOX12 (Homo sapiens) (UniProt P18054) (assay: Primary qHTS assay for inhibitors of human arachidonate 12S-lipoxygenase (ALOX12): Round 2). Details: purified 12hLO, xylenol orange hydroperoxide absorbance; activity change, negative = inhibition: at 108 µM (top of the series) unless noted.
Summary of the method: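 Hydroperoxide product was detected by ferrous iron/xylenol orange as the 573 to 405 nm absorbance ratio. Arachidonic acid at 40 uM (final) was turned over for 30 min at room temperature by 150 nM human 12hLO, pH 7.0 Hepes buffer, after 15 min compound preincubation.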
On the % scale 0 is the no-effect control and ±100 the full control effect; potency means the concentration at half of the fitted maximal effect.

| SMILES | Potency | activity change, negative = inhibition |
| --- | --- | --- |
| CCCCN(C)c1ncnc2c1cnn2-c1cccc(Cl)c1 | inconclusive: 158 µM [inhibitor, single point] |  |
| CCNC(=O)NC(=O)CSc1cc(C)c2ccccc2n1 | inconclusive: 31.6 µM [inhibitor, partial curve, poor fit] |  |
| CCOC(=O)c1cc(-c2ccc3c(c2)OCCO3)nc2c1c(C)nn2CCC#N |  | inactive: -4.9% |
| COc1cccc(CNc2ccc3c(c2)ncn3C)c1OC | inactive |  |
| CCOc1cc(NC(=S)NCCCN2CCOCC2)c(OCC)cc1NC(=O)c1ccc(C)cc1 | inconclusive: 2.51 µM [inhibitor, full curve, poor fit] |  |
| CC1(CNC(=O)c2n[nH]c3ccccc23)CCOCC1 | inconclusive: 14.1 µM [inhibitor, partial curve, poor fit] |  |
| CN(C)CCCn1cnc2c(c1=N)C(c1ccccc1)c1ccc3ccccc3c1O2 (stereo unspecified) | inconclusive: 70.8 µM [inhibitor, partial curve, poor fit] |  |
| Cc1cccc(CSCCNC(=O)CN2C(=O)c3ccccc3S2(=O)=O)c1 | inconclusive: 100 µM [inhibitor, single point] |  |
| CCOC(=O)C1=C(c2ccc(OC)cc2)C(=O)c2ccccc2C1=O | inconclusive: 39.8 µM [inhibitor, partial curve, poor fit] |  |
| COc1ccc(OC)c(CCNC(=O)C(C)n2nc(C)c3c(C)n(-c4ccc(C)cc4)nc3c2=O)c1 (stereo unspecified) | inactive |  |
| CCOc1ccccc1NC(=O)C1CCCN(S(=O)(=O)c2ccc3c(c2)CCCN3C(C)=O)C1 (stereo unspecified) | inactive |  |
| c1coc(-c2nn3c(-c4ccco4)nnc3s2)c1 | inconclusive: 89.1 µM [inhibitor, partial curve, poor fit] |  |
| COc1ccc(C2CCCN2Cc2cc(=O)oc3cc(C)ccc23)cc1 (stereo unspecified) | inconclusive: 39.8 µM [inhibitor, partial curve, poor fit] |  |
| O=C(C=Cc1ccccc1)c1cc(Br)ccc1O | inconclusive: 17.8 µM [inhibitor, partial curve, poor fit] |  |
| O=C1Nc2ccccc2OCC12CCN(CC1CCCC1)CC2 | inconclusive: 25.1 µM [inhibitor, full curve, poor fit] |  |
| CCCNC(=O)COC(=O)c1ccccc1OCc1ccc(Cl)cc1 | inconclusive: 141 µM [inhibitor, partial curve, poor fit] |  |
| O=C1NC[C@@H](CCCCN2CCN(CCc3ccc(O)cc3)C(=O)C2=O)N(CCC2CCCCC2)C1=O | inconclusive: 3.55 µM [inhibitor, full curve, poor fit] |  |
| CN(C(=O)c1ccc2c(c1)CCO2)C(C)(C)C | inconclusive: 112 µM [inhibitor, single point] |  |
| O=C(NCc1ccco1)C1CC(c2ccccc2)CN(C(=O)c2ccccc2F)C1 (stereo unspecified) | inconclusive: 15.8 µM [inhibitor, full curve] |  |
| C/C(CCC12CC3CC(CC(C3)C1)C2)=N\NC(N)=S | active: 10 µM |  |
| CCOC(=O)c1c(N)sc2c1CCSC2 |  | inactive: 37.5% |
| CC(C)CN1C(=O)COC[C@@H]1[C@H](O)c1ccc(NC(=O)c2ccco2)cc1 |  | inactive: 40% [at 176 µM] |

| SMILES | Potency | activity change, negative = inhibition |
| --- | --- | --- |
| Cc1ccc(C2=NC3(CCN(C(=O)c4ccc(C)s4)CC3)ON2)cc1 | inconclusive: 35.5 µM [inhibitor, full curve, poor fit] |  |
| COc1ccc(S(=O)(=O)N(C)C)cc1NC(=O)CN1C(=O)NC2(CCCC2)C1=O | inconclusive: 8.91 µM [inhibitor, partial curve, poor fit] |  |
| O=C(Nc1ccccn1)C1COc2ccccc2O1 (stereo unspecified) |  | inactive: -12.3% |
| O=C(NNC(=O)c1ccc2ccccc2c1O)c1ccccc1Cl | inconclusive: 0.501 µM [inhibitor, full curve, poor fit] |  |
| CN(CC(=O)Nc1ccc(F)cc1)CC(=O)N1CCCCC1 | inconclusive: 2.51 µM [inhibitor, single point] |  |
| COc1ccc(S(=O)(=O)n2nc(OC(=O)c3c(-c4ccccc4Cl)noc3C)cc2N)cc1 | inconclusive: 89.1 µM [inhibitor, partial curve, poor fit] |  |
| CCOc1ccccc1/C=C1/Cc2c(O)cccc2C1=O | inconclusive: 100 µM [inhibitor, partial curve, poor fit] |  |
| O=C(CC[C@@H]1CNC(=O)[C@@H]2C[C@H](NC(=O)Nc3ccccc3)CN12)Nc1ccccc1 | inconclusive: 63.1 µM [inhibitor, full curve] |  |
| CC(C)(C)c1ccc(OCC(O)CNS(=O)(=O)Cc2ccccc2)cc1 (stereo unspecified) | inconclusive: 158 µM [inhibitor, partial curve, poor fit] |  |
| c1ccc(Cn2ncc3c2CCCC3NCc2cscn2)cc1 (stereo unspecified) | inconclusive: 35.5 µM [inhibitor, single point] |  |
| CCOC(=O)N1CCN(C(=O)c2cccc(S(=O)(=O)Nc3ccccc3Cl)c2)CC1 |  | inactive: 13% |
| CN(CC(=O)N(C1CCCC1)C1CCS(=O)(=O)C1)c1ccc2ccccc2c1 (stereo unspecified) | inconclusive: 20 µM [inhibitor, partial curve, poor fit] |  |
| COc1ccc(CCNC(=O)CC2COc3ccccc3O2)cc1OC (stereo unspecified) |  | inactive: 0% |
| Cc1cccc(N2N=C(C(=O)N3CC(=O)Nc4ccccc43)CCC2=O)c1 | inconclusive: 44.7 µM [inhibitor, partial curve, poor fit] |  |
| Cc1ccc(CNC(=O)COC(=O)c2ccc(S(=O)(=O)N3CCCC3)cc2)cc1 |  | inactive: 72.8% |
| Cc1ccc(NC(=O)CCNS(=O)(=O)c2ccc3[nH]c(=O)oc3c2)c(C)c1 | inconclusive: 14.1 µM [inhibitor, partial curve, poor fit] |  |
| O=C(NC[C@H]1O[C@@H](CO)[C@@H](O)[C@H]1N1CCN(c2ccccc2)CC1)N1CCOCC1 | inconclusive: 17.8 µM [inhibitor, full curve] |  |
| COc1cc(CNC(=O)c2c(C)noc2C(C)C)ccn1 |  | inactive: 70.7% |
| COc1cc2c(cc1OC)C(C[C@H]1CN(S(=O)(=O)c3ccc(C#N)cc3)CC[C@H]1CC(=O)O)=NCC2 | inconclusive: 89.1 µM [inhibitor, single point] |  |
| COc1cccc(CNC(=O)c2ccc(Cn3ccn4nc5c(c4c3=O)CCCC5)cc2)c1 | inconclusive: 31.6 µM [inhibitor, full curve, poor fit] |  |
| CCCCSCC(=O)NC12CC3CC(CC(C3)C1)C2 |  | inactive: 6.13% |
| COc1ccccc1OC(C)C(=O)Nc1ccc2c(c1)OCCO2 (stereo unspecified) |  | inactive: -5.53% |

| SMILES | Potency | activity change, negative = inhibition |
| --- | --- | --- |
| C[C@@H](NC(=O)c1ccccc1)c1c(-c2ccc(Cl)cc2)noc1C(=O)O | inconclusive: 22.4 µM [inhibitor, full curve] |  |
| O=C(N/N=C/c1cc([N+](=O)[O-])cc([N+](=O)[O-])c1O)/C(=C\c1cccs1)NC(=O)c1ccccc1 | active: 15.8 µM |  |
| CCOC(=O)C1=CCC(c2ccc(CC)cc2)N(S(=O)(=O)c2ccc(C)cc2)C1 (stereo unspecified) |  | inactive: 15.5% |
| O=C(OC1CCCCC1=O)c1cccc(Br)c1 (stereo unspecified) | inconclusive: 44.7 µM [inhibitor, partial curve, poor fit] |  |
| O=C(NNc1ccccc1[N+](=O)[O-])Nc1ccc(F)cc1F | inconclusive: 56.2 µM [inhibitor, partial curve, poor fit] |  |
| CCOC(=O)C1(Cc2ccc(F)cc2F)CCCN(C(=O)c2cccnc2SC)C1 (stereo unspecified) |  | inactive: 17.8% |
| S=c1cc[nH]c(=S)[nH]1 | inconclusive: 11.2 µM [inhibitor, full curve] |  |
| Cn1cnc2cc(C(=O)N3CCNCC(C(=O)O)C3)ccc21 (stereo unspecified) | inconclusive: 6.31 µM [inhibitor, partial curve] |  |
| Cc1ccc(OCCOCCn2ccnc2)c(Br)c1 | inconclusive: 0.398 µM [inhibitor, full curve, poor fit] |  |
| CCCC(CC)Sc1nc2c([nH]1)c(=S)n(C)c(=O)n2C (stereo unspecified) | inconclusive: 50.1 µM [inhibitor, partial curve, poor fit] |  |
| CCOc1ccc(NC(=O)CN(C)C(=O)CSCc2cccc(C)c2)cc1OCC | inconclusive: 44.7 µM [inhibitor, partial curve, poor fit] |  |
| O=C(Nc1nccs1)c1ccc(N2C(=O)C3CCCCC3C2=O)cc1 (stereo unspecified) | inconclusive: 4.47 µM [inhibitor, full curve, poor fit] |  |
| CCOc1ccc2nc(NC(=O)CSC3=NCCS3)sc2c1 |  | inactive: 4.1% |
| N#C/C(=C\c1cccc(OCC(=O)O)c1)c1nc2ccccc2[nH]1 | inconclusive: 28.2 µM [inhibitor, single point] |  |
| COc1ccc(NC(=O)COC(=O)C2CC3C=CC2C3)cc1 (stereo unspecified) | inconclusive: 44.7 µM [inhibitor, partial curve, poor fit] |  |
| O=C(Cn1c(SCc2cccc(F)c2)nc2ccncc21)Nc1ccc(Cl)cc1F | inconclusive: 158 µM [inhibitor, partial curve, poor fit] |  |
| Cc1cc(C)c(S(=O)(=O)N2C[C@H]3CON(C)[C@H]3C[C@H]2c2ccc(-n3ccnc3)cc2)c(C)c1 |  | inactive: 7.87% |
| CC(C)(C)n1nnnc1C(c1ccncc1)N1CCN(c2ccc(O)cc2)CC1 (stereo unspecified) | inconclusive: 44.7 µM [inhibitor, partial curve, poor fit] |  |
| Clc1ccc(-c2n[nH]c3c2CCCC3)cc1 | inconclusive: 112 µM [inhibitor, partial curve, poor fit] |  |
| CCn1c2ccccc2c2cc(/C=N/n3cn[nH]c3=S)ccc21 | inconclusive: 39.8 µM [inhibitor, partial curve] |  |
| C=CCNC(=O)c1c[nH]c2cccnc12 |  | inactive: 41% [at 176 µM] |
| O=C(NNc1ncnc2c1cnn2-c1ccccc1)c1ccccc1 | inconclusive: 50.1 µM [inhibitor, partial curve, poor fit] |  |

2 neighbouring entries already listed, quoted:

| SMILES | Potency | activity change, negative = inhibition |
| --- | --- | --- |
| CC1(CNC(=O)c2n[nH]c3ccccc23)CCOCC1 | inconclusive: 14.1 µM [inhibitor, partial curve, poor fit] |  |
| CN(C)CCCn1cnc2c(c1=N)C(c1ccccc1)c1ccc3ccccc3c1O2 (stereo unspecified) | inconclusive: 70.8 µM [inhibitor, partial curve, poor fit] |  |
